# Source: article PMC7819943, “Rice protein-binding microarrays: a tool to detect cis-acting elements near promoter regions in rice”
# Some of the results follow.
# Molecular target: T1, OsSMF1 (Oryza sativa, UniProt Q6ZLB0 1-436)
# T1 sequence: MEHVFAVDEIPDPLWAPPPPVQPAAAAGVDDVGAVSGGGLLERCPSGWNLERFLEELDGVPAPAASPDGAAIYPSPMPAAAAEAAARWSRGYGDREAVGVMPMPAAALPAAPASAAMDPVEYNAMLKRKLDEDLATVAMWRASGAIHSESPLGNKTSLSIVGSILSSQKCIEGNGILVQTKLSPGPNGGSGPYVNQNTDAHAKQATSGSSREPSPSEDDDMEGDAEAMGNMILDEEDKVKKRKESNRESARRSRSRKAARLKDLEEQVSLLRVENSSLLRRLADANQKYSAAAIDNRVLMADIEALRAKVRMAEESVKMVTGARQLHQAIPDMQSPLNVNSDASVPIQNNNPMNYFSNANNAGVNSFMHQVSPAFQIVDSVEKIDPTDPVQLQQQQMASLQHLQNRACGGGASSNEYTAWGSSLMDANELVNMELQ
# Test: protein-binding microarray (RPBM); PBS, 2% BSA, 51.3 ng/ul salmon testes DNA, 50 uM zinc acetate, 200 nM TF, 25 C, 1 h; high values mean tight binding
# Details: protein: recombinant; tags: N-terminal polyhistidine and DsRed monomer fusion (pET32a); chain copies: 2; label: CyDye5-dUTP incorporated in the synthesized complementary strand; 3' TTTTT single-stranded linker to array surface; dsDNA, one strand shown
# How it was run: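 Per-feature fluorescence intensity (arbitrary units), read on an Axon 4000B scanner, is the binding signal. Transcription factors carrying an N-terminal polyhistidine tag and DsRed fusion were expressed in E. coli BL21-CodonPlus and purified on Ni–NTA. A custom Agilent array, made double-stranded by primer extension with Cy5-dUTP and blocked with 2% BSA, was incubated with 200 nM protein in PBS, 2% BSA, salmon testes DNA and 50 µM zinc acetate at 25 °C for 1 h and then washed.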
row,Sequence,binding signal
1,AACGGCCGTCTGCCACGTCATTTTCGCCGCCCTCTGGGATCGGAGTCACCTAGTGCAG,27400 fluorescence intensity (a.u.)
2,GTGTGCATGATATCATCGTCTTCTACTCCGGATCAGTAAACGGAGTCACCTAGTGCAG,4030 fluorescence intensity (a.u.)
3,TATAGTACTGTAAGTTTAGTAATTACACATGTAAGTTTAGCGGAGTCACCTAGTGCAG,31400 fluorescence intensity (a.u.)
4,CCCTCACCGCTCACTGGCTCTCGTCTCTCGCCGCCGCCGCCGGAGTCACCTAGTGCAG,30200 fluorescence intensity (a.u.)
5,GAGAGTTGCTAGGAAACTTTTGCAGGTTGATTATGTGTCACGGAGTCACCTAGTGCAG,3800 fluorescence intensity (a.u.)
6,CTTCCTTTCGTCATGCGTACAAGCCATCCCCACATCACCACGGAGTCACCTAGTGCAG,5710 fluorescence intensity (a.u.)
7,CCTCGCTGATCGATCTCACTCCACGTCGTAGCTGTGAGCTCGGAGTCACCTAGTGCAG,4680 fluorescence intensity (a.u.)
8,TCCAAGATACCGGATTCGTGATCCCTACAAGCTTCTTGGTCGGAGTCACCTAGTGCAG,4300 fluorescence intensity (a.u.)
9,AACTTCATCTTGCATTCATATTTTGTCAGCCTTATCTAACCGGAGTCACCTAGTGCAG,3140 fluorescence intensity (a.u.)
10,GCGCCGAGCGGCCGCCTTGCTTCAGATCGCAACGATTTCTCGGAGTCACCTAGTGCAG,12400 fluorescence intensity (a.u.)
11,GCACAGCCAGCAACCGCGTGGCCGTCGCGAGCCGCTGCCACGGAGTCACCTAGTGCAG,3400 fluorescence intensity (a.u.)
12,TCATAATATTATAAATTTGGACAAAGATATATCATATCACCGGAGTCACCTAGTGCAG,3150 fluorescence intensity (a.u.)
13,AAACTTGGTAACGTGAGCTAACCGTAACTGTAGTCATTGCCGGAGTCACCTAGTGCAG,4240 fluorescence intensity (a.u.)
14,TACCAGCACTGTTTCCTGATACTGGTATCGATTAACAGGTCGGAGTCACCTAGTGCAG,10100 fluorescence intensity (a.u.)
15,ACCGAAGGCGTCGCCCATGGCCTCGCCGTACGAGGTGGCGCGGAGTCACCTAGTGCAG,3850 fluorescence intensity (a.u.)
16,GCCCAACCGGAGAGAGCACTAGTTGGCCGGCCATGTCATGCGGAGTCACCTAGTGCAG,5280 fluorescence intensity (a.u.)
17,ATGAGCCCACCACAACAATACCGCCACTCCACGTACACAACGGAGTCACCTAGTGCAG,4370 fluorescence intensity (a.u.)
18,CTCACCCCGCACTTCTCCCACCGCCACCGAGGCACGGCTCCGGAGTCACCTAGTGCAG,4360 fluorescence intensity (a.u.)
19,CCCTTGTTACATGTCATGCCCTGTGCTGTCTCCCAATCCCCGGAGTCACCTAGTGCAG,4780 fluorescence intensity (a.u.)
20,GTTGGGGAATGCGTTGTATCCGGTTTTGCAGCCTAGGGATCGGAGTCACCTAGTGCAG,3380 fluorescence intensity (a.u.)
21,CTCTTATCTCTCGATTGATCCACGAACAGTGACACCGCCGCGGAGTCACCTAGTGCAG,3230 fluorescence intensity (a.u.)

row,Sequence,binding signal
1,CCCTTACACCGCCCTGTGAACAGTCACTGACAATCCTGGCCGGAGTCACCTAGTGCAG,4330 fluorescence intensity (a.u.)
2,TGAGACGGCCGTGCGTGCGTCGGCGGGTCGCCCCGTCTCCCGGAGTCACCTAGTGCAG,6430 fluorescence intensity (a.u.)
3,TCATAACTAATATTTAAATGGTATTTGAACATCCCATGGACGGAGTCACCTAGTGCAG,24500 fluorescence intensity (a.u.)
4,AGATAGATAGAGAGAGAGAAGGGAAAGGGAAGAGAGAGAGCGGAGTCACCTAGTGCAG,17800 fluorescence intensity (a.u.)
5,GAATTACAAGGATGGTAAGGTTTGGTCTTTCAAAGTCTTACGGAGTCACCTAGTGCAG,40100 fluorescence intensity (a.u.)
6,ATTAGGTGGCTTTACTCTTCCGCCTGCGTGGCTGCCTGCCCGGAGTCACCTAGTGCAG,4710 fluorescence intensity (a.u.)
7,ACTTACCTATTTAATGACGGGGACTACTACTTGTGGATGGCGGAGTCACCTAGTGCAG,5300 fluorescence intensity (a.u.)
8,TCATTTAACAAACGTCTTAAACAGGGAAACCGCATATGCACGGAGTCACCTAGTGCAG,29500 fluorescence intensity (a.u.)
9,GTGGTACGCCGTGCGCCCGCGCCACCTCACCTCCGCCGAGCGGAGTCACCTAGTGCAG,8240 fluorescence intensity (a.u.)
10,CCTCCACCTCATCGTCCTCCTCCTCCGCTTCGCATTTCCTCGGAGTCACCTAGTGCAG,5420 fluorescence intensity (a.u.)
11,TGTCACCACAGCTCACGAGAGGTGTCAGCCATTGTGGTTGCGGAGTCACCTAGTGCAG,4150 fluorescence intensity (a.u.)
12,ATGTTTGAATGCATTCTTTCATCACCAAGGCGTGGCACCTCGGAGTCACCTAGTGCAG,4270 fluorescence intensity (a.u.)
13,TCTCCGTCGCCGTAAGATGGTGTCGTCCATGTGAATGAACCGGAGTCACCTAGTGCAG,3210 fluorescence intensity (a.u.)
14,GGCAACGCGCAGGTGACGCCGCTGCACGTGGCGAGCGCGACGGAGTCACCTAGTGCAG,10200 fluorescence intensity (a.u.)
15,GATGGAGACCCTGTGCGAACTGACAGTAATAGGGCTGGAACGGAGTCACCTAGTGCAG,39400 fluorescence intensity (a.u.)
16,TCTTGACATGGTTGCATATGTCAGTGACTTCGGTTCAGCACGGAGTCACCTAGTGCAG,3210 fluorescence intensity (a.u.)
17,GGCCGTGGCGTAGCCGGCCGCCGCCGCGGTGGACGCGTTGCGGAGTCACCTAGTGCAG,3180 fluorescence intensity (a.u.)
18,TGTGTTTGATGTGATGATGTCCTCATTTACTATCAGTGGTCGGAGTCACCTAGTGCAG,4340 fluorescence intensity (a.u.)
19,TACCCGGCGCCCTACAGCGACGGACGGACGGACGGCGTCACGGAGTCACCTAGTGCAG,24600 fluorescence intensity (a.u.)
20,CAGCGGTGAACCTGAGCGAGCGGATTTCGGCGTACGTGGCCGGAGTCACCTAGTGCAG,4050 fluorescence intensity (a.u.)
21,ATATGGTTAGAGCAATGACTTGGACTAGTGAGTCTTCCATCGGAGTCACCTAGTGCAG,4860 fluorescence intensity (a.u.)

# Given with tabs: part of the list above.
row	Sequence	binding signal
16	GCCCAACCGGAGAGAGCACTAGTTGGCCGGCCATGTCATGCGGAGTCACCTAGTGCAG	5280 fluorescence intensity (a.u.)
17	ATGAGCCCACCACAACAATACCGCCACTCCACGTACACAACGGAGTCACCTAGTGCAG	4370 fluorescence intensity (a.u.)
